PubChem BioAssay AID504764 | Drosophila RNAi Screening Center | 2011
Test: 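Genome-wide screen for regulators of Notch-driven gene expression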 (primary screen). Cell system: Drosophila Kc167 cells. Reagents: long dsRNA against Drosophila genes. Duration: about 5 days (4 days dsRNA, then 24 h after transfection). Treatment: transfection of constitutively active membrane-tethered Notch lacking the extracellular domain, read 24 h later. Detection: 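Light from a Notch-responsive E(spl)m3 luciferase reporter under active Notch, with control-promoter and no-Notch reporter wells to normalise; raw counts from paired wells a and b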. Scale: induced reporter light, run 1, well a and induced reporter light, run 1, well b: higher = more light from the Notch target reporter with active Notch; control promoter light, run 1, well a and control promoter light, run 1, well b: higher = more light from the viral control promoter (cell number, transfection, viability); uninduced reporter light, run 1, well a: higher = more light from the Notch target reporter without active Notch. Active means: 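Wells with low control signal or poorly matching duplicates excluded; duplicates averaged; per source plate, z beyond ±2 for induced/control log2 ratio or beyond ±1.8 for induced/uninduced marks a hit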. Meaning of the calls: active = modifier hit (raised or lowered Notch signal); inactive = not a hit.
In all, the deposit lists about 22,000 reagents; below is a random part of those that have a named target and a result. Of all reagents, 403 (1.9%) were called active. 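Unnormalised raw counts per well; ratio z-scores behind the hit calls and whether each hit raises or lowers signal are not deposited.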 Names joined by + are all predicted targets of the reagent. The record does not give: the amount of reagent.

With Psa [DRSC08152], what was measured?
induced reporter light, run 1, well a: 91320; induced reporter light, run 1, well b: 88645; control promoter light, run 1, well a: 1.96e5; control promoter light, run 1, well b: 1.75e5; uninduced reporter light, run 1, well a: 7790; activity call: inactive

How did the screen score Or85d [DRSC16767]?
induced reporter light, run 1, well a: 49850; induced reporter light, run 1, well b: 59075; control promoter light, run 1, well a: 51320; control promoter light, run 1, well b: 36995; uninduced reporter light, run 1, well a: 3735; activity call: inactive

How did the screen score mub [DRSC11896]?
induced reporter light, run 1, well a: 92035; induced reporter light, run 1, well b: 86630; control promoter light, run 1, well a: 49485; control promoter light, run 1, well b: 57665; uninduced reporter light, run 1, well a: 8225; activity call: inactive

For CG14605 [DRSC12549], what was measured?
induced reporter light, run 1, well a: 61995; induced reporter light, run 1, well b: 80260; control promoter light, run 1, well a: 83905; control promoter light, run 1, well b: 62240; uninduced reporter light, run 1, well a: 4715; activity call: inactive

With rux [DRSC18829], what does the deposit list?
induced reporter light, run 1, well a: 2.26e5; induced reporter light, run 1, well b: 2.03e5; control promoter light, run 1, well a: 2.65e5; control promoter light, run 1, well b: 2.53e5; uninduced reporter light, run 1, well a: 13900; activity call: inactive

For gammaSnap1 [DRSC04686], how do the results read?
induced reporter light, run 1, well a: 2.12e5; induced reporter light, run 1, well b: 1.61e5; control promoter light, run 1, well a: 1.50e5; control promoter light, run 1, well b: 1.87e5; uninduced reporter light, run 1, well a: 12875; activity call: inactive

For mei-W68 [DRSC07649], what does the deposit list?
induced reporter light, run 1, well a: 90640; induced reporter light, run 1, well b: 95085; control promoter light, run 1, well a: 1.76e5; control promoter light, run 1, well b: 1.69e5; uninduced reporter light, run 1, well a: 9185; activity call: inactive

How did the screen score Syp [DRSC13444]?
induced reporter light, run 1, well a: 1.07e5; induced reporter light, run 1, well b: 96450; control promoter light, run 1, well a: 1.20e5; control promoter light, run 1, well b: 97335; uninduced reporter light, run 1, well a: 10482; activity call: inactive

Which result is listed for Syp [DRSC15286]?
induced reporter light, run 1, well a: 1.60e5; induced reporter light, run 1, well b: 1.63e5; control promoter light, run 1, well a: 1.73e5; control promoter light, run 1, well b: 2.03e5; uninduced reporter light, run 1, well a: 13605; activity call: inactive

How did the screen score CG15382 [DRSC00397]?
induced reporter light, run 1, well a: 1.18e5; induced reporter light, run 1, well b: 1.10e5; control promoter light, run 1, well a: 90470; control promoter light, run 1, well b: 58350; uninduced reporter light, run 1, well a: 9385; activity call: inactive

Not a retest: an excerpt of the list.
mei-W68 [DRSC07649] — induced reporter light, run 1, well a: 90640; induced reporter light, run 1, well b: 95085; control promoter light, run 1, well a: 1.76e5; control promoter light, run 1, well b: 1.69e5; uninduced reporter light, run 1, well a: 9185; activity call: inactive
Syp [DRSC13444] — induced reporter light, run 1, well a: 1.07e5; induced reporter light, run 1, well b: 96450; control promoter light, run 1, well a: 1.20e5; control promoter light, run 1, well b: 97335; uninduced reporter light, run 1, well a: 10482; activity call: inactive
Syp [DRSC15286] — induced reporter light, run 1, well a: 1.60e5; induced reporter light, run 1, well b: 1.63e5; control promoter light, run 1, well a: 1.73e5; control promoter light, run 1, well b: 2.03e5; uninduced reporter light, run 1, well a: 13605; activity call: inactive

The results go on.
How did the screen score CG16727 [DRSC15139]?
induced reporter light, run 1, well a: 2.33e5; induced reporter light, run 1, well b: 1.87e5; control promoter light, run 1, well a: 2.10e5; control promoter light, run 1, well b: 1.92e5; uninduced reporter light, run 1, well a: 11275; activity call: active

What is on record for Atg9 [DRSC06848]?
induced reporter light, run 1, well a: 1.01e5; induced reporter light, run 1, well b: 1.23e5; control promoter light, run 1, well a: 1.92e5; control promoter light, run 1, well b: 1.73e5; uninduced reporter light, run 1, well a: 8915; activity call: inactive

With Hrb27C [DRSC03347], how do the results read?
induced reporter light, run 1, well a: 16480; induced reporter light, run 1, well b: 17015; control promoter light, run 1, well a: 15915; control promoter light, run 1, well b: 14070; uninduced reporter light, run 1, well a: 1410; activity call: inactive

With Gyc76C + CG42637 [DRSC11180], what was measured?
induced reporter light, run 1, well a: 1.17e5; induced reporter light, run 1, well b: 1.15e5; control promoter light, run 1, well a: 84705; control promoter light, run 1, well b: 1.10e5; uninduced reporter light, run 1, well a: 9132; activity call: inactive

What is on record for Cog8 [DRSC02961]?
induced reporter light, run 1, well a: 2.20e5; induced reporter light, run 1, well b: 2.01e5; control promoter light, run 1, well a: 1.95e5; control promoter light, run 1, well b: 2.27e5; uninduced reporter light, run 1, well a: 15670; activity call: inactive

What did the screen give for Pez [DRSC03397]?
induced reporter light, run 1, well a: 2.28e5; induced reporter light, run 1, well b: 1.39e5; control promoter light, run 1, well a: 2.02e5; control promoter light, run 1, well b: 1.88e5; uninduced reporter light, run 1, well a: 10682; activity call: inactive

For GNBP1 [DRSC11169], what was measured?
induced reporter light, run 1, well a: 2.08e5; induced reporter light, run 1, well b: 2.02e5; control promoter light, run 1, well a: 2.90e5; control promoter light, run 1, well b: 1.94e5; uninduced reporter light, run 1, well a: 9165; activity call: inactive

How did the screen score CG12914 [DRSC06229]?
induced reporter light, run 1, well a: 1.76e5; induced reporter light, run 1, well b: 1.39e5; control promoter light, run 1, well a: 2.21e5; control promoter light, run 1, well b: 2.28e5; uninduced reporter light, run 1, well a: 15175; activity call: inactive
